B1: Bendless (Ben) (enzyme, UniProt P35128 1-151)
chain: MSSLPRRIIKETQRLMQEPVPGINAIPDENNARYFHVIVTGPNDSPFEGGVFKLELFLPEDYPMSAPKVRFITKIYHPNIDRLGRICLDVLKDKWSPALQIRTILLSIQALLSAPNPDDPLANDVAELWKVNEAEAIRNAREWTQKYAVED
B2: Rigor mortis (Gemin5 orthologue) (protein, UniProt Q86BY9 1-1235)
chain: MNSQVMYHNVPTPPGNVSLAAAAPDGGLLYAGIRCINYISAPPANGEQPQVVTMSTRINILALDVSPMWGLGNGGPTKPFAIVGDDLSVQVWDCALGEAVIGHKAHQHQHEARDVRVVHHTTNSVLMSYLANGNILSMDASDLVIYCVASNTYCRRSTFISPRNHQLTMVRCSPYNDNLFAVGTAMGNVLVCDLRKMNIVYKFHGHKAPICGLAWREVPAAEDEKTNNLALSAEEWRSRNGGQEEKPKTKPPPLTKSKAAESDDPFDIYNFDHLEYEFGAPIAERRRKSSEDCGGEFVGLEKPAGAAVLDFVEACESVKAELLASRQEDKTQHVEVTLHDCEPTKPTGPLSDASTISNKNDASDSTEGSLEVIQYSSSSDDAVIVDGEAAKPKREVLHHIYHQAEVHASGTPQTKSEPQSNLQVVPAISAETISLTSVNSTHLETLLVSIDGDEVMMIWNTNTGAHAGKNYSKSKTAGKLNNVYWLNNHVIVSLSRHQLFFWSVEFERKMLRYKISKDKSHSCHLQDIVSFACDSSKEMIWLCRNNRQIGMMNPKTGRMADFYGTVAFGVRAMAECPDDMNKIALGCSDRRVAFFDISKLTTSCLPIDSVYVSSNVYCLAWSPNCLELAFGTFDGTVGILDVERMKVKTHLRTPHKKEVYSLVWQDHFIYFIVNRVLGFFDLRKSKIEPTIVNCISRPSYLSIRDSFLFVGTDDGLLQIHERDSGMEKSWSPFIRQSALFARYVTDIAWCPLDSNKFAVSGNDRSVYVMEFQPTERNWKTLHTFTANTEKASITSMRWSHTQKHLLLTFHIEGKVCLWNCNAPEKPPLTITYHCPMWCGMFLPTNENIIMCSGKALSVELIDIKDALEGDEKSICPKVDALLNVKWASKSLTQPYAPVLTAAEKKRQRRDQRKAAAKLEVDVANKDQKKIQESVTAVIDNPTNDKCTQETPVEEMLEALSLDKEQNNRSAKECPKCKEQSPDSFTHSRTCLYLTQKELNKSALEKLAIVLTEDSAKIDKSVLISKLFSSKVMAKELIATELTNLKHSNTKDIAPLCLAMSTFKLREELEQHIANKTLTERHVSLAPSVSFTLWQDCCRAYAKQMEEKGYIMHAATYLFSQGMQSEAIKLFLANEYYKEALVHARICLPATDPLIKTVINNWLEHLEGTGNFAAAALICVLDNEMLRGYSYLRKYRNCTPEIADLMDQIKRIGQLGGVLDGCAPNEPIHNGSTAEH
B3: Gemin2 (Drosophila) (protein, UniProt Q9VVX0 1-245)
chain: MQHEPEDQTFQLQALEICEPDSSFDPQKPPESGEEYLMHMFYERKRCPAVVTKRSSKIRNNTGNTTLEMLDNPELPPFKCLLPTPEWRDEQVKSFQAARSQVLVLRKELANNNYDQSGEPPLTSDQEKWKEFCRNQQPLLSTLLHLTQNDLELLLEMLSKWLQDPNTTVDLLHDVWLARWLYATLVCLHLPLEPHVFSTLRYIARTCIHLRNQLKEDEVQRAAPYNLLLTLTVQVFAQNDFKDYI

Amino acid sequences for entries named in this document (tags omitted).
UniProt P18431: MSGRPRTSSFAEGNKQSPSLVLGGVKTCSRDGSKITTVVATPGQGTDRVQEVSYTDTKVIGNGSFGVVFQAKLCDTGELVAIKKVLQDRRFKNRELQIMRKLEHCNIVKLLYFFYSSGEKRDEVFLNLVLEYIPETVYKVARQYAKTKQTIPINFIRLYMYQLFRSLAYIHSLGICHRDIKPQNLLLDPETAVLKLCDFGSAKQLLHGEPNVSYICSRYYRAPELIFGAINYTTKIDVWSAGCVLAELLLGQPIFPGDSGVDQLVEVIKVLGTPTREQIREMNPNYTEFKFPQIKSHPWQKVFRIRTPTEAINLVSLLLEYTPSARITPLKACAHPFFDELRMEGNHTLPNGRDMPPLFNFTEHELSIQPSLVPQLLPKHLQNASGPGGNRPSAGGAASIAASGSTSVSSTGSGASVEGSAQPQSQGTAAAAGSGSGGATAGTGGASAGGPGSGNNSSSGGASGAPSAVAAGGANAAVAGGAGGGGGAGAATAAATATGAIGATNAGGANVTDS
UniProt Q24311: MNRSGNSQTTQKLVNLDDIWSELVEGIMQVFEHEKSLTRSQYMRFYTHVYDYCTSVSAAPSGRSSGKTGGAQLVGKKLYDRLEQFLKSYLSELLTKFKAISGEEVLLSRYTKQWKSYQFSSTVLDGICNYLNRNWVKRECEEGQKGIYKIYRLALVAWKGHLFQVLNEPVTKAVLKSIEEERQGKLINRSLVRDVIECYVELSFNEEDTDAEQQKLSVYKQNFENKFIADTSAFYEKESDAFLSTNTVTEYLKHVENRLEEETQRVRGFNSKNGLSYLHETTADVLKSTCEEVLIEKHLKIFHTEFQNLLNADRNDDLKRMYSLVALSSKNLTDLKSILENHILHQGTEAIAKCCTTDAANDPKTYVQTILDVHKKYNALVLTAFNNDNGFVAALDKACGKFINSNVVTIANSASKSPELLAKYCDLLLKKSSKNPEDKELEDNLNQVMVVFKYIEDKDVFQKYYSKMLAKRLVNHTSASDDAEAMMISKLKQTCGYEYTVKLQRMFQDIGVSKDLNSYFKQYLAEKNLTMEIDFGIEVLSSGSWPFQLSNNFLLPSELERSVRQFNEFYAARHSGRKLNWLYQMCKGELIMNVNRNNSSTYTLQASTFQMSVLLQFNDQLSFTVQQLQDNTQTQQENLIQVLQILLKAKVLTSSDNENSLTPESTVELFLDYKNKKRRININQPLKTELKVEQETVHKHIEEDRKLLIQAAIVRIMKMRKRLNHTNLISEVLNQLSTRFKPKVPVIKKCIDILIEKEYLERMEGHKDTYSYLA
UniProt O77430: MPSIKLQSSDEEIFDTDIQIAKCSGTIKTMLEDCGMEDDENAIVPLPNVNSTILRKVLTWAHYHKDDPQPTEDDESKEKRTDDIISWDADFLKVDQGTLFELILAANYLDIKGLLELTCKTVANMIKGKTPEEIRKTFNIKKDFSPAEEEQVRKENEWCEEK

Results are given in words; binding and its absence hold for the method and conditions named. In cells and extracts the contact can be indirect. These calls come from enrichment with a bait or labelling near it, and not all partners need be listed. Tags and fused reporters may be left off the sequences shown.

One experiment addresses T1, Flag-SMN (Drosophila SMN from the Flag-Smn^WT transgene) (Drosophila melanogaster) (UniProt Q9VV74).
T1 sequence: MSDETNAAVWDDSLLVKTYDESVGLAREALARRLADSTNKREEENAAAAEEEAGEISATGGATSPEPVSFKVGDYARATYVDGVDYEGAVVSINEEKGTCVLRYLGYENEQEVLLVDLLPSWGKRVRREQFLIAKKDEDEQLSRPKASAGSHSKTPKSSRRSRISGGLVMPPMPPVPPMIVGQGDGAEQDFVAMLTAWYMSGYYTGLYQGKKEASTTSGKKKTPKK
Briefly: affinity purification with mass spectrometry.
Regarding B1, the binding entry is on record as “binds”.

For B2, the binding entry was “binds”.

With B3, the binding entry is “binds”.

Another experiment has as its target T1, Flag-SMN (Drosophila SMN from the Flag-Smn^WT transgene) (Drosophila melanogaster). The experiment in a line: affinity purification with mass spectrometry. The source holds these as a separate data set.
For the molecule “Shaggy (Sgg), the Drosophila GSK3β orthologue (from UniProt P18431 1-514) (enzyme)”, the binding entry is listed as “binds”.

Regarding “Cullin 1 (Cul1), endogenous in Drosophila embryos (from UniProt Q24311 1-774)”, the binding entry is reported as “binds”.

Take “Skp1-related A (SkpA), endogenous in Drosophila embryos (from UniProt O77430 1-162)”: the binding entry is given as “binds”.

Regarding “U7-specific Sm-like heterodimer Lsm10/11 (complex)”, the binding result is “binds”.

In the case of “supernumerary limbs (Slmb), endogenous in Drosophila embryos”, the binding entry is reported as “binds”.

(Values after article doi:10.1101/078337.)
